Among the data in PMC10750279 are binding values, retold here.

Amino acid sequences for entries named in this document (tags omitted). A change or cut given only in a name is not applied to a line headed by its entry.
UniProt P05556: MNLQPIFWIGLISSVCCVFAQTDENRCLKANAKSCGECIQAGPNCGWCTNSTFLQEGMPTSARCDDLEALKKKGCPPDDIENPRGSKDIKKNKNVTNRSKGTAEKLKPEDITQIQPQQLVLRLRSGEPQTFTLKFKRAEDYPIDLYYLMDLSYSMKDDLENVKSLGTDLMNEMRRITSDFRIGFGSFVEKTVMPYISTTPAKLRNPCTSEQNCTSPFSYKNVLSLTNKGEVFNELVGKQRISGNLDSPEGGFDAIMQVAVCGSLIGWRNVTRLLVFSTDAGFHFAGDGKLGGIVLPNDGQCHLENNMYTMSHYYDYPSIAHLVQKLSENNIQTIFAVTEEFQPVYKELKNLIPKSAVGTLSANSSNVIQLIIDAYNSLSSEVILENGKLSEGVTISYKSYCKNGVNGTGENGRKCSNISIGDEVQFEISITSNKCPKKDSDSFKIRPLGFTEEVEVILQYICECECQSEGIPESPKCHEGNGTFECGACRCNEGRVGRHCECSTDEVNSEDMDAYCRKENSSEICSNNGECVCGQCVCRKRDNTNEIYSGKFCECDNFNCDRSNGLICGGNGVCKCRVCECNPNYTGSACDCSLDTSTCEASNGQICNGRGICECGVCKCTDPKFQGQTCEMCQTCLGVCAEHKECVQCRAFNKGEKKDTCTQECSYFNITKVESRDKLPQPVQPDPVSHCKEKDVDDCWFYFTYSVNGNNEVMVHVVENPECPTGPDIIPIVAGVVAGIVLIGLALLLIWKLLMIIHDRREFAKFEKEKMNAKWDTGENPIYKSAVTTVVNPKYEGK
UniProt Q8IZW8: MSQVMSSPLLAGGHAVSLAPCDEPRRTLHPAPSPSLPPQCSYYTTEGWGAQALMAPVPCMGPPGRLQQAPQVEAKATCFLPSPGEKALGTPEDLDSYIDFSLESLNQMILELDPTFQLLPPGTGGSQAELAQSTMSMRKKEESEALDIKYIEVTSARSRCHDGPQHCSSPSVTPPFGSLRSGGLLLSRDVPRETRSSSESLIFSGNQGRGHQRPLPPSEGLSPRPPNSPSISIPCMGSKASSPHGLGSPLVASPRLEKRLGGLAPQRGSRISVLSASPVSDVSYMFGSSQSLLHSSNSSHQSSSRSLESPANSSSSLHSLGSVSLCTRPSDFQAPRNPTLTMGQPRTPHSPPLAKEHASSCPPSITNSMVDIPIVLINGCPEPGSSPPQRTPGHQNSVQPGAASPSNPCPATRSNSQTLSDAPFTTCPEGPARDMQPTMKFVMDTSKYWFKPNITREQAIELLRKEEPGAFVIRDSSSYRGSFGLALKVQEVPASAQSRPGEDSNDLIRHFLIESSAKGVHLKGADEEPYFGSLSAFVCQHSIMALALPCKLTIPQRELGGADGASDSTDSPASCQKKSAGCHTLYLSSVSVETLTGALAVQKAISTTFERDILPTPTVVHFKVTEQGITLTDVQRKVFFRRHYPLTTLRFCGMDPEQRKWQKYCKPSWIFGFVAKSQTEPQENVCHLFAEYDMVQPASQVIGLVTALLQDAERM

Results are given in words; binding and its absence hold for the method and conditions named. In cells and extracts the contact can be indirect. A result given as binding can be weak or reduced; the word gives no strength.

The experiment concerns the target integrin β1 (human (endogenous in HNSCC cell lines)) (UniProt P05556). Put plainly: co-IP; HNSCC cells lysed in radioimmunoprecipitation assay buffer; supernatants incubated with primary antibodies or IgG control at 4°C overnight, then magnetic beads 8 h, western blotting; cells untreated or with TNS4 depletion (shTNS4/siTNS4), TNS4 overexpression or FAK inhibitor.

With tensin 4 (TNS4) (from UniProt Q8IZW8), the binding entry is listed as “binds”.
